Laboratory results reported in PubChem BioAssay AID493014 (National Center for Advancing Translational Sciences (NCATS), 2011).
Some of the results follow. Shown are side measurements of this screen, not its main read-out; they come without a call. Compounds called inactive in the main read-out are mostly missing here. Words in brackets tell the shape of the fitted curve; partial curves, single points and poor fits give uncertain potencies.

Experiment: qHTS Assay to Find Inhibitors of Chronic Active B-Cell Receptor Signaling
Conditions: ABC-DLBCL IkBa-CBG/CBR reporter, luminescence ratio (green luciferase fused to IkBa over red control in TMD8 lymphoma cells), 4 h
Summary of the method: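 TMD8 human ABC-DLBCL cells with doxycycline-inducible IκBα–green luciferase fusion and unfused red luciferase, in 0.5% FBS medium; compounds up to 46 uM, 4 h at 37C. Green/red luminescence ratio, filter-overlap corrected, fitted to concentration-response curves.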

[1] = measured here: CBR red luminescence, cell number
[2] = measured here: IkBa-CBG green luminescence

SMILES	AC50 [1]	AC50 [2]
Cc1cccc(C(=O)NC(=S)Nc2ccc(Cc3ccncc3)cc2)c1	10 µM [falling, partial curve]	
CCN(Cc1ccccc1)c1ncnc2c1cnn2-c1ccc(F)cc1	12.6 µM [rising, partial curve, poor fit]	
COc1ccccc1-c1nnc(NC(=O)c2ccc3ncsc3c2)o1	2.59 µM [falling, full curve]	
CCCC12CN3CCN(CC(C3)/C1=N\NC(=O)c1ccccc1N)C2	20.6 µM [falling, partial curve]	
COc1cccc(Nc2nc(-c3ccccc3)nc3ccccc23)c1	35.5 µM [falling, single point]	
Cc1ccc(OCC(O)Cn2c(N)nc3c2c(=O)n(C)c(=O)n3C)cc1 (configuration not stated)	2.82 µM [rising, partial curve, poor fit]	
O=C(N/N=C\c1cccnc1)c1ccc(Cl)s1	0.891 µM [rising, partial curve, poor fit]	
COCCNC(=O)CSc1nc2ccccc2c(=O)n1CCC(=O)NCCc1ccc(OC)c(OC)c1	12.6 µM [rising, partial curve, poor fit]	
N/C(=N\OC(=O)c1ccc([N+](=O)[O-])cc1)c1cccnc1	0.651 µM [rising, full curve, poor fit]	
O=Cc1c(N2CCN(c3ccccc3)CC2)nc2ccccn2c1=O	7.94 µM [rising, partial curve, poor fit]	12.6 µM [falling, partial curve, poor fit]
COc1cccc(-c2sc3cc(OC)c(OC)cc3c2-c2ccc(OCCN3CCCCC3)cc2)c1		23.1 µM [falling, partial curve, poor fit]
CCOc1ccccc1C1C(C(=O)Nc2ccccc2)=C(C)Nc2nc(SCC(=O)c3ccc(C)cc3)nn21 (configuration not stated)	2.82 µM [falling, single point]	
O=C1c2ccccc2NC(c2ccccc2O)N1O (configuration not stated)	6.31 µM [rising, single point]	
CCCCNC(=O)c1nnn(-c2ccccc2)c1N	11.6 µM [falling, partial curve]	
Cc1cc(C)n2nc(S(=O)(=O)NCCc3ccccc3)nc2n1	4.61 µM [rising, single point]	
Cc1onc(-c2ccccc2Cl)c1C(=O)OCn1nnc2ccccc2c1=O	10.3 µM [falling, partial curve, poor fit]	
COC(=O)CSc1nc(Cc2ccccc2)nc2ccccc12	22.4 µM [falling, single point]	
CC1Cc2ccccc2N1C(=O)CSc1nn2c(=O)c(C(C)(C)C)nnc2s1 (configuration not stated)	20 µM [falling, single point]	5.01 µM [rising, full curve, poor fit]
CC1CCCN(C(=O)CCCn2c(=S)[nH]c3ccccc3c2=O)C1 (configuration not stated)	18.4 µM [falling, single point]	
CCOc1cccc(CN(CC)CC2CCCN(CCc3cccc(OC)c3)C2)c1O (configuration not stated)	22.4 µM [falling, single point]	
N#Cc1cccc(N=c2ssnc2Cl)c1	10 µM [rising, partial curve, poor fit]	22.4 µM [falling, partial curve, poor fit]

SMILES	AC50 [1]	AC50 [2]
CCOC(=O)c1c(C)[nH]c(C)c1C(=O)COC(=O)/C=C/c1ccc(OC(F)F)cc1	29.1 µM [rising, single point]	
CC(Sc1ccccc1)C(=O)NN=C1CCCCCCC1 (configuration not stated)	35.5 µM [rising, single point]	
COc1ccc(C(C)NCCC(c2ccc(OC(C)C)cc2)c2ccccc2OC)cc1 (configuration not stated)	17.8 µM [falling, single point]	
COc1ccc(OC(C)C(=O)N(C)Cc2nc(-c3cccc(C)c3)no2)cc1 (configuration not stated)	35.5 µM [rising, partial curve, poor fit]	
COc1ccc(Cl)cc1NC(=S)N1CCN(c2ccccn2)CC1	11.2 µM [rising, single point]	
CC(C)(C)CC(=O)NCCc1csc(-c2ccccc2)n1	5.62 µM [rising, single point]	
O=C(Nc1ccc(F)cc1)Nc1ccccc1C(=O)NCCN1CCNC1=O	5.62 µM [falling, full curve, poor fit]	
O=C1C(c2ccc(F)cc2)N(CC2COc3ccccc3O2)C(=O)CN1C1CCCCC1 (configuration not stated)	6.31 µM [falling, single point]	
COc1ccc(OC)c(-n2c(C)cc(C=O)c2C)c1	7.08 µM [rising, full curve, poor fit]	
CCOC(=O)C1=C(c2ccccc2)Nc2ncnn2C1c1cc(OC)ccc1OC (configuration not stated)	20.6 µM [rising, single point]	
CNc1ccc(Br)cc(C(=O)/C=C/c2cccc(OC)c2)c1=O	2.59 µM [falling, full curve, poor fit]	
Cc1nc(N)sc1C(=O)N/N=C/c1cccnc1	2.51 µM [falling, partial curve]	
Cc1c(/C=C/C(=O)c2ccccc2O)cnn1C	0.517 µM [rising, full curve]	
CC(/C=N/n1c(C2CCCCC2)n[nH]c1=S)=C\c1ccccc1	11.2 µM [rising, partial curve]	
Cc1ccc(NC(=O)CCN2C(=O)c3ccccc3C2=O)c(C)c1	10 µM [rising, partial curve]	
CCC(=O)O[C@]1(C(=O)CCl)[C@@H](C)C[C@H]2[C@@H]3CCC4=CC(=O)C=C[C@]4(C)[C@@]3(F)[C@@H](O)C[C@@]21C	35.5 µM [falling, single point]	
CC(=O)Nc1ccc(S(=O)(=O)Nc2nc(CN3CCOCC3)nc3sc4c(c23)CCCC4)cc1	1.84 µM [falling, partial curve, poor fit]	
CCOC(=O)c1sc2nc(C)nc(SCC(=O)NC3CCS(=O)(=O)C3)c2c1C (configuration not stated)	5.01 µM [rising, single point]	
Cc1nn(C(C)(C)C)c(OC(=O)CC(C)C)c1S(=O)(=O)c1ccccc1	35.5 µM [rising, single point]	
Cc1ccc(SCCSc2nc(C)cc(=O)[nH]2)cc1	14.1 µM [rising, single point]	
CCC(=O)Nc1ccc(C(=O)COC(=O)c2sc(C)nc2C)cc1	2.06 µM [rising, full curve, poor fit]	

Taken from above.
AC50 [1] with CCOC(=O)C1=C(c2ccccc2)Nc2ncnn2C1c1cc(OC)ccc1OC (configuration not stated) is entered as 20.6 µM [rising, single point]
AC50 [1] with CCC(=O)O[C@]1(C(=O)CCl)[C@@H](C)C[C@H]2[C@@H]3CCC4=CC(=O)C=C[C@]4(C)[C@@]3(F)[C@@H](O)C[C@@]21C is entered as 35.5 µM [falling, single point]

Later entries.

SMILES	AC50 [1]	AC50 [2]
O=C(NC1CCCCC1)N1CCN(Cc2ccco2)CC1	35.5 µM [falling, single point]	
Cc1ccc(S(=O)(=O)N/N=C/c2ccc(O)cc2O)cc1[N+](=O)[O-]	22.4 µM [falling, single point]	
CCS(=O)(=O)c1nc(S(=O)(=O)c2ccc(C)cc2)c(NCCCn2ccnc2)s1	1.12 µM [rising, single point]	
CC12C(=O)N(Cc3ccco3)C(=O)C1C1c3ccccc3C2c2ccccc21 (configuration not stated)	0.58 µM [falling, single point]	
Cc1nc2sc(C(c3ccccc3)N3CC(C)OC(C)C3)c(O)n2n1 (configuration not stated)	22.4 µM [rising, single point]	
Cc1nc(NC(=O)c2ccccc2)sc1-c1csc(Nc2ccc(C(=O)O)cc2)n1	0.447 µM [falling, partial curve, poor fit]	
CCCN(C(=O)c1ccco1)c1nnc(-c2cccc(C)c2)s1	35.5 µM [rising, single point]	
Cn1ccnc1SCC(=O)c1ccc2ccccc2c1	11.2 µM [falling, partial curve, poor fit]	
COc1ccc(OC)c(CN2C(=O)c3ccccc3C2C(=O)NCC2CCCO2)c1 (configuration not stated)	35.5 µM [rising, single point]	
Cc1ccc(/C=C/C(=O)c2ccc(O)cc2)cc1	31.6 µM [falling, single point]	
COc1ccccc1-c1noc(-c2cc(OC)c(OC)c(OC)c2)n1	10.3 µM [rising, partial curve, poor fit]	
COCCN1C(=O)c2ccc(C(=O)O)cc2C1=O	4.61 µM [rising, full curve, poor fit]	
CN(C)CC/C=C1\c2ccccc2Sc2ccc(Cl)cc21	15.8 µM [falling, single point]	
CC1CCCCN1C(=S)NC(=O)c1cccs1 (configuration not stated)	22.4 µM [rising, partial curve, poor fit]	22.4 µM [falling, partial curve, poor fit]
CN(C(=O)CN1C(=O)S/C(=C\c2cccc(Cl)c2)C1=O)C1CCS(=O)(=O)C1 (configuration not stated)	22.4 µM [falling, partial curve]	
COC(=O)C1=CN(c2ccc(F)cc2)C=C(C(=O)OC)C1c1cccc([N+](=O)[O-])c1	12.6 µM [falling, single point]	
CCn1c(SCC(=O)Nc2ccc(NC(C)=O)cc2)nnc1C1CC1	0.1 µM [rising, full curve, poor fit]	
CCCCC(=O)NC(c1ccccc1OC)c1ccc2cccnc2c1O (configuration not stated)	1.26 µM [falling, full curve, poor fit]	
Cc1ccc(-n2ncc3c(Nc4cccc(Cl)c4)ncnc32)c(C)c1	0.447 µM [rising, full curve, poor fit]	
COc1cc(OC)c(NC(=O)CCCNC(=O)Cn2cnc3sc(C)c(C)c3c2=O)cc1Cl	35.5 µM [rising, single point]	
Cc1cc(C)nc(NC(=O)/C=C/c2ccc3c(c2)OCO3)c1	18.4 µM [falling, partial curve]	
